The record followed here is PubChem BioAssay AID2685 (National Center for Advancing Translational Sciences (NCATS), 2010).

This assay is described as follows: qHTS Assay for Lipid Storage Modulators in Drosophila S3 Cells.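 As to cell number change: cells counted by Cell Tracker Red CMTPX staining in the red channel.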 As to conditions: BODIPY lipid droplet fluorescence, 18-24 h; for cell number change: measured here: cell count max response, cells fed with added oleic acid. In short, it runs like this:
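Laser-scanning cytometry quantifies lipid droplet accumulation (500–530 nm total intensity; droplet/cell object ratio) in oleic acid-fed (400 uM added) Drosophila S3 cells treated with a concentration series. 20 uM Triacsin C defined 100% inhibition.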
For orientation: In qHTS, concentration-response curves come from the screen itself.

[1] abbreviates: measured here: lipid fluorescence (Fed channel) AC50, cells fed with added oleic acid.
The mark [2] stands for this setting: measured here: cell number channel AC50, cells fed with added oleic acid.

The list shows a part of the results. These are further read-outs of the screen, such as a control signal, another cell line or another target. No call is given for them. Most of these compounds were active or inconclusive in the main read-out, so they are no random draw. The note in brackets gives the kind of curve behind each potency; many fits are weak.

As for `Cc1ccc(N2CCN(C(=O)c3cc(C(=O)c4ccccc4C)c[nH]3)CC2)c(C)c1`, the cell number change was -26.7%. The AC50 under setting [1] is 29.1 µM [falling, single point].
Take `Cc1cc2nncn2c(Cc2ccccc2)n1`: the cell number change is -12.9%.
Still for that read-out and setting: in the case of `COc1ccccc1CCNC(=O)c1cnn2c(C(F)F)cc(C)nc12` it was 9.85%.
Turning to `COCCNC(C(=O)Nc1cc(Cl)cc(Cl)c1)c1ccccc1` (stereo not drawn), the cell number change came to 45.2%. Besides, the AC50 under setting [2] was 29.1 µM [rising, single point].
As to `COc1ccc(C(=O)OCC(=O)NC(C)CCc2ccccc2)c(OC)c1` (stereo not drawn), the cell number change was -19.4%. In addition, the half-maximal activity concentration (AC50) under setting [1] was 16.4 µM [falling, partial curve].
In the case of `CC(C)(C)N1CC(C(=O)Nc2ccc(S(=O)(=O)N3CCCCC3)cc2)CC1=O` (stereo not drawn), the cell number change turned out to be 29.7%.
In the case of `COc1ccc(C(=O)Nc2nc(C)c3cc4c(cc3n2)OCO4)cc1`, the cell number change amounted to 20.7%. Further, the AC50 under setting [1] is 1.84 µM [rising, full curve, poor fit].
As to `CCc1ccc2c(CC(=O)Nc3nnc(C4CC4)s3)coc2c1`, the cell number change was 29%.
As for `CC(=O)Nc1ccc(Nc2ncnc3c2cnn3-c2cccc(C)c2)cc1`, the concentration at half-maximal activity (AC50) under setting [1] is 2.59 µM [rising, single point].
`Cc1ccc(C)c(S(=O)(=O)NCc2ccc3c(c2)OCO3)c1`: the cell number change was -9.79%. Further, the AC50 under setting [1] was 3.66 µM [rising, single point].
Take `COc1cc(/C=N/n2cnn(Cc3ccccc3Cl)c2=S)cc(OC)c1OC`: the cell number change was 22%.
Turning to `COc1nccnc1NS(=O)(=O)c1ccc(NC(=S)NC(=O)/C=C/c2ccc(F)cc2)cc1`, the cell number change amounted to 1.04%. For the same compound, under setting [2], the concentration at half-maximal activity (AC50) was 6.51 µM [falling, single point].
With `Cc1cccc(C(=O)N/N=C/c2ccc(OC3CSC3)cc2)c1`, the cell number change turned out to be 18.2%. Moreover, the half-maximal activity concentration (AC50) under setting [1] was 8.2 µM [rising, partial curve].
On to `CC1(C)CC2CC(C)(CN2C(=S)Nc2ccccc2)C1` (stereo not drawn), for which the cell number change turned out to be 11.9%. For the same compound, under setting [2], the AC50 is 0.164 µM [falling, partial curve, poor fit].
As to `CCCN1C(=O)C(=O)N(CC(=O)c2cc(C)n(C3CC3)c2C)C1=O`, the cell number change came to 34.8%. In addition, under setting [2], the AC50 was 32.6 µM [rising, partial curve, poor fit].
`Cc1nc2ccccc2c(=O)n1NC(=O)C1CC1`: the cell number change came to 12.3%. Further, the concentration at half-maximal activity (AC50) under setting [1] is 6.31 µM [falling, single point].
Take `COC(=O)c1c(NC(=O)C2CCC2)sc(C(=O)N(C)C)c1C`: the cell number change amounted to 88%. Moreover, under setting [2], the concentration at half-maximal activity (AC50) is 3.66 µM [rising, full curve]. Further, the AC50 under setting [1] is 6.51 µM [rising, single point].
Consider `COc1ccc(C(O)(CCC(C)C)C(CN2CCOCC2)c2ccccc2)cc1` (stereo not drawn), for which the cell number change was -46.1%. Also, the AC50 under setting [2] was 29.1 µM [falling, single point]. Under setting [1], the concentration at half-maximal activity (AC50) is 2.31 µM [falling, partial curve].
As for `CC1CN(C(=O)Nc2cccc(Cl)c2)C2(CCCCCC2)O1` (stereo not drawn), the cell number change worked out at 33.9%. In addition, the AC50 under setting [2] was 29.1 µM [rising, single point].
Regarding `CC(=O)N1CCN(C(=O)CCc2nc3ccccc3c(=O)[nH]2)CC1`, the cell number change came to 15.7%. Besides, the half-maximal activity concentration (AC50) under setting [1] is 0.103 µM [falling, full curve, poor fit].
Consider `CCOc1ccccc1C(=O)NCC(=O)NNC(=O)CN(C)S(=O)(=O)c1ccc(Cl)cc1`, for which the cell number change was determined as 54.6%. Moreover, under setting [2], the concentration at half-maximal activity (AC50) was 23.1 µM [rising, single point]. The AC50 under setting [1] is 18.4 µM [rising, partial curve].
On to `O=C(NCc1ccco1)C1CCN(c2nc3ccccc3n2Cc2ccc(F)cc2)CC1`, for which the cell number change turned out to be 0.184%. Also, the AC50 under setting [1] was 8.2 µM [rising, partial curve].
In the case of `COC(=O)c1coc(-c2ccc(OC)cc2)c1C(=O)OC`, the AC50 under setting [1] was 7.31 µM [falling, partial curve, poor fit].
As to `CC1C/C(=C/c2cccn2C)C(=O)/C(=C/c2cccn2C)C1` (stereo not drawn), the cell number change was -172%. Also, the AC50 under setting [2] is 9.2 µM [falling, partial curve].
As for `CC(=O)c1c(C)oc2ccc(N(C(C)=O)S(=O)(=O)c3ccc(F)cc3C)cc12`, the cell number change was -51.1%. Further, the AC50 under setting [2] was 7.31 µM [falling, partial curve].
`Cc1ccc(S(=O)(=O)NCCC2=CCCCC2)cc1C(N)=O`: the cell number change was -45.9%. Further, under setting [2], the AC50 is 13 µM [falling, partial curve, poor fit]. Moreover, the half-maximal activity concentration (AC50) under setting [1] was 2.31 µM [falling, partial curve].
Regarding `CC(=O)OCC(=O)Nc1ccc([N+](=O)[O-])cc1Cl`, the cell number change is 5.08%.
`CCCC(C)NC(=O)c1cc(C(=O)OC)cc([N+](=O)[O-])c1` (stereo not drawn): the cell number change was 1.19%. The AC50 under setting [2] was 0.13 µM [falling, full curve, poor fit].
`CCCCn1c(SCC(=O)NCc2ccco2)nc2ccccc2c1=O`: the cell number change is 69.5%. The concentration at half-maximal activity (AC50) under setting [2] was 1.3 µM [rising, full curve]. Also, the AC50 under setting [1] was 23.1 µM [rising, partial curve].
For `COc1cc2c(cc1OC)C(CC#N)=NC(C)(C)C2`, the cell number change is 30.2%. Further, the AC50 under setting [2] is 2.31 µM [rising, full curve]. Moreover, the AC50 under setting [1] was 0.013 µM [rising, full curve, poor fit].
Regarding `Cc1ccccc1N=C(NOCc1ccccc1)c1nonc1N`, the cell number change is -25.9%. The AC50 under setting [1] was 16.4 µM [falling, single point].
As to `CCN(c1ccccc1)S(=O)(=O)c1ccc(OC)c(N=N/C(C(=O)Nc2ccccc2)=C(/C)O)c1`, the cell number change is -54.3%. For the same compound, the concentration at half-maximal activity (AC50) under setting [2] is 9.2 µM [falling, single point]. Further, the half-maximal activity concentration (AC50) under setting [1] was 1.46 µM [falling, partial curve].
As for `CN(C1CCCCC1)S(=O)(=O)c1ccccc1`, the cell number change was found to be 3.18%. The concentration at half-maximal activity (AC50) under setting [1] is 14.6 µM [rising, single point].
For `CCOC(=O)c1c(NC(=O)CSc2nnc(-c3cccnc3)o2)sc(C(C)=O)c1C`, the cell number change is -26.8%. The AC50 under setting [1] is 0.411 µM [rising, single point].
Regarding `NC(=O)c1ccc(C(F)(F)F)n(Cc2cccc(Cl)c2)c1=O`, the AC50 under setting [1] is 29.1 µM [falling, single point].
Still for that read-out and setting: the result for `COc1nc(-c2ccccc2)ccc1-c1noc(-c2ccco2)n1` reads 6.51 µM [rising, single point].
As for `Cc1ccccc1OCC(=O)NCC1CCCO1` (stereo not drawn), the cell number change is 57.9%. Besides, the AC50 under setting [2] is 29.1 µM [rising, single point]. Also, the concentration at half-maximal activity (AC50) under setting [1] was 29.1 µM [rising, single point].
In the case of `O=C(NCCc1c[nH]c2ccccc12)C1CCN(S(=O)(=O)c2ccccc2F)CC1`, the AC50 under setting [2] is 1.64 µM [rising, single point].
`COc1ccc(S(=O)(=O)N(CC(=O)NCc2ccco2)c2ccccc2OC)cc1`: the cell number change was 21.4%.
On to `CCn1nc(C)cc1C(=O)OCC(=O)c1ccc(Cl)cc1`, for which the cell number change is -0.379%. The AC50 under setting [1] was 1.16 µM [rising, single point].
Take `Cc1ccccc1C(=O)Oc1cc(N)n(S(=O)(=O)c2ccccc2)n1`: the cell number change was -48.9%. Further, under setting [2], the AC50 was 29.1 µM [falling, single point].
Take `O=C(O)c1ccccc1C(=O)c1ccc(Oc2ccccc2)cc1`: the cell number change came out at 11.4%. For the same compound, under setting [1], the concentration at half-maximal activity (AC50) is 2.31 µM [falling, single point].
For the compound `CC(=O)Nc1ccc2c(c1)OCO2`, the cell number change is -7.33%. Also, the AC50 under setting [2] was 0.0082 µM [falling, full curve, poor fit]. Also, the concentration at half-maximal activity (AC50) under setting [1] is 0.092 µM [falling, full curve, poor fit].
With `CCOc1ccc(-c2c(=O)n(OCc3ccccn3)c3ccccc3[n+]2[O-])cc1`, the cell number change is -11.7%. For the same compound, under setting [1], the half-maximal activity concentration (AC50) is 25.9 µM [falling, single point].
With `CCOC(=O)C(CC)/C(C)=N\NC(=O)CCC(=O)Nc1ccc(Cl)cc1Cl` (stereo not drawn), the cell number change came to 49.2%. Further, under setting [2], the half-maximal activity concentration (AC50) is 0.00517 µM [rising, full curve]. For the same compound, the AC50 under setting [1] was 0.366 µM [rising, full curve, poor fit].
On to `CCN(CC)C(=O)CSc1nc2ccc(NC(=O)CSc3nnc(COc4ccccc4C)n3C)cc2s1`, for which the cell number change was -12.6%. Besides, under setting [1], the concentration at half-maximal activity (AC50) is 4.11 µM [falling, partial curve].
As for `O=C1C=CC(=O)N1Cc1ccccc1`, under setting [1], the AC50 is 4.61 µM [falling, full curve].
For the compound `CCc1ccc(S(=O)(=O)/N=C2\C=C(Nc3cccc(C(=O)O)c3)C(=O)c3ccccc32)cc1`, the cell number change was -3.85%.
Turning to `O=C(CNC(=O)c1ccc(F)cc1)NCc1ccc(Cl)cc1`, the cell number change is 60.6%. In addition, the concentration at half-maximal activity (AC50) under setting [2] was 29.1 µM [rising, single point].
`CC(C)(C)c1cc(NC(=O)COC(=O)c2nccnc2N)n(-c2ccccc2)n1`: the cell number change was -4.95%. Under setting [1], the concentration at half-maximal activity (AC50) is 29.1 µM [rising, single point].
Turning to `Cc1cc(C(=O)CSc2nnc(N)s2)c(C)n1CCc1ccc(F)cc1`, the cell number change came out at 56.5%. Besides, the concentration at half-maximal activity (AC50) under setting [2] is 29.1 µM [rising, single point]. Under setting [1], the half-maximal activity concentration (AC50) is 29.1 µM [rising, partial curve].
Turning to `Clc1ccc(NCn2cncn2)nc1`, the cell number change was -3.25%. The AC50 under setting [1] was 3.66 µM [falling, single point].
For the compound `CCN(CC)C1CCCCC1NS(=O)(=O)c1ccc(Cl)cc1` (stereo not drawn), the half-maximal activity concentration (AC50) under setting [1] was 0.58 µM [falling, single point].
`CCOC(=O)c1sc(NC(=O)CCN2C(=O)C3CCCCC3C2=O)cc1C` (stereo not drawn): the cell number change came out at 14%. Moreover, the AC50 under setting [1] was 20.6 µM [falling, single point].
On to `CCN(CC(=O)Nc1c(F)cccc1F)C(=O)CCSc1ccc(C)cc1`, for which the cell number change was -35.6%. Further, the AC50 under setting [2] is 32.6 µM [falling, single point]. The half-maximal activity concentration (AC50) under setting [1] is 29.1 µM [falling, single point].
For the compound `Cc1ccc(-c2nc(CS(=O)CC(=O)N3CCN(c4ncccn4)CC3)c(C)o2)cc1` (stereo not drawn), the cell number change is -23.6%. In addition, under setting [1], the half-maximal activity concentration (AC50) is 32.6 µM [falling, single point].
For `CCCN1CCN(c2ccc([N+](=O)[O-])cc2C#N)CC1`, the cell number change was -8.33%. Moreover, under setting [2], the AC50 was 0.00517 µM [falling, full curve, poor fit]. In addition, the AC50 under setting [1] is 0.00461 µM [falling, full curve].
Turning to `COc1ccc(OC)c(COC(=O)c2cc([N+](=O)[O-])ccc2N2CCOCC2)c1`, the cell number change was 19.4%. The concentration at half-maximal activity (AC50) under setting [1] was 29.1 µM [falling, single point].
Turning to `O=C(Cn1cc([N+](=O)[O-])cn1)Nc1ccn(Cc2c(F)c(F)c(F)c(F)c2F)n1`, the cell number change is 51.6%. Further, the AC50 under setting [2] was 10.3 µM [rising, partial curve, poor fit].
As for `COc1ccc(C(=O)Nn2c(SCC(=O)c3ccccc3)nc3ccccc3c2=O)cc1`, the cell number change turned out to be 1.1%. In addition, the half-maximal activity concentration (AC50) under setting [1] is 1.64 µM [falling, partial curve].

In general, AC50 refers to the midpoint of the concentration-response curve, whichever way the signal moves.
